# Data from PubChem BioAssay AID540276 (National Center for Advancing Translational Sciences (NCATS), 2011).
# Values joined by “and” are separate entries in the source; they are usually repeats but may differ in a detail not shown here. Equal values may be shown once. The campaign covered roughly 300,000 compounds. About 5,400 (1.8%) were called active. The shares of active, inactive and inconclusive entries below differ from those in the screen. Calls come from the whole dose curve; tested in HEK293 cells. Where the call is inconclusive, the potency comes from a doubtful curve fit.
# Test: qHTS for inhibitors of binding or entry into cells for Marburg Virus
# Settings: Marburg virus pseudotyped entry inhibition, cell reporter; series mostly up to 37.8 µM
# Potency is the fitted concentration of half-maximal effect.
row,Structure (SMILES),Potency
1,CC1=C(C)CC(C(=O)c2ccc(C)cc2)C(C(=O)O)C1 (stereo unspecified),"inconclusive: 31.6 µM [activator, single point]"
2,O=C1[C@@H]2[C@@H]3C[C@@H]([C@H]4ON=C(c5ccc(Cl)cc5)[C@@H]34)[C@@H]2C(=O)N1C1CCCCC1,"inconclusive: 14.1 µM [inhibitor, single point]"
3,CC1CN(Cc2ccccc2)C(C)CC1O (stereo unspecified),"inconclusive: 1.26 µM [inhibitor, full curve, poor fit]"
4,COc1ccc(N2CCN(C3CC(=O)N(Cc4ccccc4)C3=O)CC2)cc1 (stereo unspecified),inactive
5,NC(=O)c1c(NC(=S)Nc2ccccc2)sc2c1CCCC2,"inconclusive: 3.16 µM [activator, single point]"
6,COc1ccc(C(CNC(=O)c2cccc(S(=O)(=O)Nc3cccc(C)c3)c2)N2CCOCC2)cc1 (stereo unspecified),"inconclusive: 5.01 µM [inhibitor, partial curve, poor fit]"
7,COC(=O)c1c(C)oc2c1cc(NS(=O)(=O)c1cccs1)c1ccccc12,"inconclusive: 20 µM [inhibitor, single point]"
8,N=c1c(C(=O)NCCc2ccccc2)cc2c(=O)n3ccccc3nc2n1CCCN1CCOCC1,active: 7.08 µM
9,CCCS(=O)(=O)N1CCC(C(=O)Oc2ccc(OC)cc2)CC1,inactive
10,O=S1(=O)N(CCN2CC=C(c3c[nH]c4cc(F)ccc34)CC2)c2cccc3c2N1CCC3,"inconclusive: 29.1 µM [inhibitor, single point] and inconclusive: 14.1 µM [inhibitor, single point]"
11,COc1ccc(/C=N/NC(=O)c2cc(Br)ccc2O)cc1Cn1cc(Cl)cn1,"inconclusive: 20 µM [activator, single point]"
12,COC(=O)c1ccc2c(=O)n(CCCN3CCOCC3)c(=S)[nH]c2c1,inactive
13,CCC(=O)/C=C1/Sc2ccccc2N1CC,inactive
14,CC(=O)Nc1sc(C)c(C)c1C(=O)OCC(=O)NC(C)c1ccccc1 (stereo unspecified),"inconclusive: 4.47 µM [activator, single point]"
15,CN1CCN(C(c2cccc(Cl)c2)c2ccccc2Cl)CC1 (stereo unspecified),"inconclusive: 35.5 µM [inhibitor, partial curve, poor fit]"
16,COCCN(C(=O)COC(=O)/C=C/c1ccc2ccccc2n1)c1c(N)n(Cc2ccccc2)c(=O)[nH]c1=O,"inconclusive: 25.1 µM [inhibitor, single point]"
17,O=C(Nc1cccc(O)c1)c1cc(-c2ccccc2Cl)on1,active: 7.08 µM
18,O=C(NCc1ccco1)c1ccc2c(c1)N(Cc1ccccc1)C(=O)c1ccccc1S2(=O)=O,inactive
19,Cc1ccc(-c2nnc(C)c(N3CCOCC3)n2)cc1,"inconclusive: 35.5 µM [inhibitor, single point]"
20,CC(C(=O)N=Nc1c(O)[nH]c2ccccc12)n1cnc2ccccc2c1=O (stereo unspecified),"inconclusive: 1.26 µM [inhibitor, single point]"
21,CC1(c2ccc3noc(-c4ccc(Cl)cc4)c3c2)OCCO1,"inconclusive: 10 µM [inhibitor, partial curve, poor fit]"
22,CC1CCc2[nH]c3ccc(C(=O)Nc4ccc(C(=O)N(C)C)cc4)cc3c2C1 (stereo unspecified),"inconclusive: 3.16 µM [inhibitor, single point]"

# Exported with tabs: entries from further up
row	Structure (SMILES)	Potency
20	CC(C(=O)N=Nc1c(O)[nH]c2ccccc12)n1cnc2ccccc2c1=O (stereo unspecified)	inconclusive: 1.26 µM [inhibitor, single point]
21	CC1(c2ccc3noc(-c4ccc(Cl)cc4)c3c2)OCCO1	inconclusive: 10 µM [inhibitor, partial curve, poor fit]

# Remaining list, next part.

row,Structure (SMILES),Potency
1,Cc1ccc(CNC(=O)CN2C(=O)COc3ccc(S(=O)(=O)N4CCC(C)CC4)cc32)o1,"inconclusive: 0.562 µM [inhibitor, full curve, poor fit]"
2,CCN1/C(=C/C=C/C=C/c2sc3ccccc3[n+]2CC)Sc2ccccc21,active: 4.61 µM
3,COc1ccc(-n2nc(C(=O)NCC(=O)N3CC(C)CC(C)C3)c3ccccc3c2=O)cc1OC (stereo unspecified),"inconclusive: 1 µM [inhibitor, partial curve, poor fit]"
4,COc1cccc(/C=C/C(=O)OCC(=O)Nc2nnc(-c3ccccc3)o2)c1OC,"inconclusive: 12.6 µM [inhibitor, single point]"
5,C/C(=C\C=C(C#N)C#N)c1cc(C#N)c(N)o1,inactive
6,O=C(NC1CCCc2ccccc21)c1n[nH]c(=O)c2ccccc12 (stereo unspecified),inactive
7,NCc1nc2cccnc2n1Cc1ccccc1Cl,inactive
8,COn1c(-c2ccccc2)nc2ccc(Cl)cc21,"inconclusive: 20.6 µM [activator, single point]"
9,Cc1nonc1C1CCCN1Cc1nc(-c2ccc(F)cc2F)oc1C (stereo unspecified),"inconclusive: 11.2 µM [inhibitor, partial curve, poor fit]"
10,O=C1NC(=O)/C(=C/c2ccc3c(c2)OC(F)(F)O3)S1,"inconclusive: 8.2 µM [activator, partial curve]"
11,O=[N+]([O-])c1ccc(CNc2ccc(Cl)cc2)s1,"inconclusive: 4.47 µM [inhibitor, partial curve]"
12,CC(C)Cn1c(=O)n(C)c(=O)c2[nH]cnc21,"inconclusive: 35.5 µM [inhibitor, single point]"
13,CC(C)CC(=O)Nc1ccc(C(=O)Nc2cccc(O)c2)cc1,"inconclusive: 3.55 µM [activator, full curve]"
14,COc1ccc(OC)c(NC(=O)c2cc(-c3ccc(Cl)s3)nc3ccccc23)c1,inactive
15,CNC(=S)NC1CC2CCCC(C1)N2CC(C)C (stereo unspecified),"inconclusive: 2.31 µM [inhibitor, full curve, poor fit]"
16,COc1ccc(CCNC(=O)NC2CCCCC2)cc1OC,"inconclusive: 29.1 µM [activator, single point]"
17,CCc1ccccc1OCC(=O)Nc1cccc(S(=O)(=O)N2CCCC2)c1,"inconclusive: 35.5 µM [inhibitor, single point]"
18,CCCOC(=O)Nc1ccc(N2CCCCC2)cc1,"inconclusive: 1.16 µM [activator, full curve]"
19,O=C(Cc1ccc(Cl)cc1)NNC(=O)c1ccco1,"inconclusive: 5.62 µM [activator, single point]"
20,COc1cccc(/C=N/NC(=O)c2c(C)nc3ccc(Cl)cn23)c1O,active: 1 µM
21,COc1ccc(CCNC(=O)c2c([S-])n(-c3ccc(C)cc3)c3cccc[n+]23)cc1,"inconclusive: 6.31 µM [inhibitor, partial curve, poor fit]"
22,COc1cc2c(cc1NC(=O)c1ccc3c(c1)OCO3)oc1ccccc12,"inconclusive: 4.61 µM [activator, full curve, poor fit]"

row,Structure (SMILES),Potency
1,Cc1ccc(C(=O)NC(=S)NCC2CCCO2)cc1Br (stereo unspecified),"inconclusive: 1.41 µM [activator, partial curve, poor fit]"
2,COc1cc(C2c3cc4c(cc3OC(C)(N3CCCC3)C2C)OCO4)cc(OC)c1OC (stereo unspecified),"inconclusive: 0.708 µM [inhibitor, full curve, poor fit]"
3,Cc1cccc(C)c1NC(=O)CN(c1ccccn1)S(=O)(=O)c1ccccc1,inactive
4,CCCN(Cc1cccs1)C(=O)Nc1ccc(OCC)cc1,"inconclusive: 20 µM [inhibitor, partial curve, poor fit]"
5,COc1ccccc1NS(=O)(=O)c1cc(NC(=O)c2ccc(Cl)nc2)ccc1N1CCCC1,"inconclusive: 35.5 µM [inhibitor, single point]"
6,O=C(Nc1cnccn1)Nc1cccc(Cl)c1Cl,inactive
7,COc1ccc(NC(=O)Cn2c(=O)c(-c3cc(C)ccc3NC(C)=O)nc3ccccc32)c(OC)c1,"inconclusive: 15.8 µM [activator, partial curve, poor fit]"
8,O=C(Nc1ccc2c(c1)OCO2)c1ccc(N2CCCC2)c([N+](=O)[O-])c1,inactive
9,C/C(=N/N=C(\C)c1ccccc1O)c1ccccc1O,"inconclusive: 12.6 µM [activator, single point]"
10,O=C(NC(=S)N1CCOCC1)c1cc2ccccc2o1,"inconclusive: 5.62 µM [activator, single point]"
11,CC1CCCN(S(=O)(=O)c2ccc(NC(=O)c3cccc(-n4cnnn4)c3)cc2)C1 (stereo unspecified),inactive
12,Cc1cc(N/N=C/c2ccccc2[N+](=O)[O-])nc(-n2nc(C)cc2C)n1,"inconclusive: 35.5 µM [inhibitor, single point]"
13,Cc1cc(C)nc(SCc2ccc(C(=O)NN=C3C4CC5CC(C4)CC3C5)cc2)n1,"inconclusive: 0.112 µM [inhibitor, full curve, poor fit]"
14,Cc1cc(C(=O)COC(=O)c2ccc3c(c2)OCO3)c(C)n1CC1CCCO1 (stereo unspecified),"inconclusive: 6.31 µM [activator, single point]"
15,Cc1cc(-c2ccc(C)c(S(=O)(=O)N3CCN(c4ccc(F)cc4)CC3)c2)on1,"inconclusive: 22.4 µM [inhibitor, partial curve, poor fit]"
16,COc1ccc(Cl)cc1NC(=O)Cn1nc(C(F)(F)F)c2c1CCCC2,"inconclusive: 35.5 µM [inhibitor, single point]"
17,O=S(=O)(/N=C(/Nc1cccc2ccccc12)c1ccc(F)cc1)c1ccccc1,"inconclusive: 35.5 µM [inhibitor, single point]"
18,COc1cc(CCC(=O)OCC(=O)c2ccc[nH]2)cc(OC)c1OC,"inconclusive: 1.26 µM [inhibitor, single point]"
19,CCOc1ccc(C(C)=O)cc1COC(=O)C(C)N=C1NS(=O)(=O)c2ccccc21 (stereo unspecified),inactive
20,O=C(O)C1CC(O)CN1c1nc(Cl)ccc1[N+](=O)[O-] (stereo unspecified),inactive
21,Cc1ncnc(N)c1CCCNc1ccccc1,"inconclusive: 6.31 µM [activator, single point]"
22,COc1ccc(N=C2SC(CC(=O)Nc3cccc(Cl)c3)C(=O)N2Cc2ccco2)cc1 (stereo unspecified),"inconclusive: 14.6 µM [inhibitor, partial curve, poor fit]"

# Part of the list above, with tabs:
row	Structure (SMILES)	Potency
5	COc1ccccc1NS(=O)(=O)c1cc(NC(=O)c2ccc(Cl)nc2)ccc1N1CCCC1	inconclusive: 35.5 µM [inhibitor, single point]
6	O=C(Nc1cnccn1)Nc1cccc(Cl)c1Cl	inactive
7	COc1ccc(NC(=O)Cn2c(=O)c(-c3cc(C)ccc3NC(C)=O)nc3ccccc32)c(OC)c1	inconclusive: 15.8 µM [activator, partial curve, poor fit]
